PubChem BioAssay AID1259306, Sanger Institute – 2017
In all, the deposit lists 794 reagents; below is a random part of them. In the full data, 11 (1.4%) were called active. 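Calls reflect knock-down alone; synergy scores play no part, so knock-downs synergising with a drug can be called no change.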 Entries without a mark were called inactive. No viability above 1 is reported: the scale is capped. No sequences are given here. Not given: the amount of reagent, the time to read-out.

- Assay: 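Kinases needed for viability and knock-downs that synergise with BYL719, cetuximab or trametinib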 (primary screen)
- Cells: human SNU-C5 colorectal cancer cells
- Knock-down reagent: siRNA pool against human genes
- Conditions: DMSO vehicle alone, or one anchor drug: BYL719 at 1 µM, cetuximab at 5 µg/ml or trametinib at 10 nM, given 24 h into the assay
- Detection: 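Viability versus non-targeting pool averaged across replicates, given as fraction and robust z-score, and synergy scores for BYL719, cetuximab or trametinib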
- Reading the numbers: robust z-score, knock-down alone and viability, knock-down alone: higher = more viable cells; synergy score with BYL719: higher = stronger synthetic lethality with BYL719; synergy score with cetuximab: higher = stronger synthetic lethality with cetuximab; synergy score with trametinib: higher = stronger synthetic lethality with trametinib
- Rule for the call: 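Essential if knock-down without drug gives a robust z-score under -3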
- Meaning of the calls: active = essential (knock-down alone); inactive = no change alone

The opening 4 records, ahead of the listing:
| gene | robust z-score, knock-down alone | viability, knock-down alone | synergy score with BYL719 | synergy score with cetuximab | synergy score with trametinib |
| --- | --- | --- | --- | --- | --- |
| PSKH1 (protein serine kinase H1) | 0.366 | 0.914 | 0.0831 | -0.0175 | -0.222 |
| TJP2 (tight junction protein 2) | -0.396 | 0.809 | -0.0402 | 0 | -0.0338 |
| MED12 (mediator complex subunit 12) | 0.0752 | 0.874 | 0.142 | -0.00918 | -0.332 |
| NME6 (NME/NM23 nucleoside diphosphate kinase 6) | -2.36 | 0.538 | -0.0312 | -0.0798 | -0.157 |

The list itself, from the start:
| gene | robust z-score, knock-down alone | viability, knock-down alone | synergy score with BYL719 | synergy score with cetuximab | synergy score with trametinib |
| --- | --- | --- | --- | --- | --- |
| PSKH1 (protein serine kinase H1) | 0.366 | 0.914 | 0.0831 | -0.0175 | -0.222 |
| TJP2 (tight junction protein 2) | -0.396 | 0.809 | -0.0402 | 0 | -0.0338 |
| MED12 (mediator complex subunit 12) | 0.0752 | 0.874 | 0.142 | -0.00918 | -0.332 |
| NME6 (NME/NM23 nucleoside diphosphate kinase 6) | -2.36 | 0.538 | -0.0312 | -0.0798 | -0.157 |
| CHKB (choline kinase beta) | 0.023 | 0.867 | 0.0861 | -0.133 | -0.107 |
| CAD | 0.147 | 0.884 | -0.0723 | 0.0517 | -0.125 |
| PNKP (polynucleotide kinase 3'-phosphatase) | 0.239 | 0.897 | -0.025 | -0.103 | -0.0774 |
| CDK15 (cyclin dependent kinase 15) | 0.368 | 0.914 | 0.114 | 0.11 | -0.222 |
| DLG3 (discs large MAGUK scaffold protein 3) | 0.5 | 0.933 | 0.0836 | 0.118 | 0.0294 |
| ADCK5 (aarF domain containing kinase 5) | 0.843 | 0.98 | 0.0639 | 0.255 | 0.105 |
| AXIN2 (axin 2) | 0.893 | 0.987 | 0.135 | 0.0373 | 0.124 |
| PI4KA (phosphatidylinositol 4-kinase alpha) | 0.989 | 1 | 0.105 | 0 | -0.0996 |
| PRKCA (protein kinase C alpha) | 0.0454 | 0.87 | 0.116 | 0.0403 | 0.00311 |
| PLK3 (polo like kinase 3) | -0.502 | 0.795 | 0.0472 | 0.0393 | -0.155 |
| BMAL1 (basic helix-loop-helix ARNT like 1) | -3.3 (active) | 0.41 | -0.096 | -0.119 | -0.265 |
| PRKDC (protein kinase, DNA-activated, catalytic subunit) | 0.154 | 0.885 | 0.103 | -0.103 | -0.0298 |
| ELP1 (elongator acetyltransferase complex subunit 1) | 0.822 | 0.977 | -0.0204 | 0.086 | -0.0358 |
| DCLK1 (doublecortin like kinase 1) | 0.628 | 0.95 | 0.0732 | -0.0429 | 0.0296 |
| RAD21 (RAD21 cohesin complex component) | 0.0589 | 0.872 | 0.0139 | 0.0188 | 0.0605 |
| MVK (mevalonate kinase) | 0.989 | 1 | 0.167 | 0.295 | -0.0973 |
| DYRK4 (dual specificity tyrosine phosphorylation regulated kinase 4) | 0.897 | 0.987 | 0.12 | 0.061 | 0.0934 |
| PRP4K (pre-mRNA processing factor kinase PRP4K) | 0.844 | 0.98 | -0.02 | 0.124 | 0.0182 |
| TSSK6 (testis specific serine kinase 6) | 0.264 | 0.9 | 0.21 | -0.0333 | -0.00133 |
| MYLK (myosin light chain kinase) | -1.75 | 0.623 | -0.0316 | -0.0597 | -0.123 |
| CDKL2 (cyclin dependent kinase like 2) | -2.06 | 0.58 | 0.0551 | -0.122 | -0.125 |
| ITPKC (inositol-trisphosphate 3-kinase C) | 0.989 | 1 | 0.0571 | 0 | 0.0709 |
| CDK11B (cyclin dependent kinase 11B) | -0.104 | 0.849 | -0.151 | 0.0927 | -0.145 |
| TYK2 (tyrosine kinase 2) | 0.08 | 0.875 | 0.109 | -0.125 | 0.151 |
| KDR (kinase insert domain receptor) | 0.622 | 0.949 | 0.0916 | -0.0506 | -0.0576 |
| SRMS | -0.0874 | 0.852 | 0.255 | 0.0775 | -0.0421 |
| PFKP (phosphofructokinase, platelet) | 0.989 | 1 | 0.148 | 0.0625 | -0.0658 |
| AURKC (aurora kinase C) | -0.586 | 0.783 | -0.0161 | 0.15 | -0.0362 |
| DGKK (diacylglycerol kinase kappa) | 0.421 | 0.922 | 0.146 | -0.0252 | -0.231 |
| DBF4 (DBF4-CDC7 kinase regulatory subunit) | 0.775 | 0.97 | 0.207 | 0.136 | -0.0988 |
| NEK10 (NIMA related kinase 10) | -0.197 | 0.837 | 0.259 | 0.0717 | -0.0233 |
| SGK3 (serum/glucocorticoid regulated kinase family member 3) | 0.989 | 1 | 0 | 0 | -0.023 |
| PTPN11 (protein tyrosine phosphatase non-receptor type 11) | 0.989 | 1 | 0 | 0.0642 | 0.133 |
| PFKFB2 (6-phosphofructo-2-kinase/fructose-2,6-biphosphatase 2) | 0.175 | 0.888 | -0.00712 | 0.023 | -0.0657 |
| NME1 (NME/NM23 nucleoside diphosphate kinase 1) | 0.537 | 0.938 | 0.271 | 0.173 | -0.137 |
| MAST1 (microtubule associated serine/threonine kinase 1) | 0.989 | 1 | 0 | 0 | -0.0876 |
| MAPK4 (mitogen-activated protein kinase 4) | 0.746 | 0.967 | 0.274 | 0.153 | 0.157 |
| TGFBR1 (transforming growth factor beta receptor 1) | 0.989 | 1 | 0.0458 | 0 | 0.0915 |
| ATM (ATM serine/threonine kinase) | -0.227 | 0.832 | 0.0139 | -0.137 | -0.083 |
| PCK2 (phosphoenolpyruvate carboxykinase 2, mitochondrial) | 0.989 | 1 | 0 | 0.128 | 0.0712 |
| SYK (spleen associated tyrosine kinase) | 0.326 | 0.909 | 0.267 | 0.0348 | 0.16 |
| MAP3K6 (mitogen-activated protein kinase kinase kinase 6) | 0.302 | 0.905 | 0.0266 | -0.0946 | -0.138 |
| SPEG (striated muscle enriched protein kinase) | 0.107 | 0.878 | -0.0389 | 0.0323 | -0.275 |
| MAP3K3 (mitogen-activated protein kinase kinase kinase 3) | 0.0655 | 0.873 | 0.138 | 0.168 | 0.05 |
| MAP2K3 (mitogen-activated protein kinase kinase 3) | -1.64 | 0.638 | 0.124 | 0.112 | -0.16 |
| INSRR (insulin receptor related receptor) | 0.989 | 1 | 0.258 | 0.0834 | 0.0197 |
| CAMKK1 (calcium/calmodulin dependent protein kinase kinase 1) | 0.713 | 0.962 | 0.0619 | 0.0638 | 0.0401 |
| CKS2 (CDC28 protein kinase regulatory subunit 2) | 0.989 | 1 | 0 | 0 | 0.0874 |
| PANK2 (pantothenate kinase 2) | 0.707 | 0.961 | 0.214 | 0.0259 | -0.116 |
| BMPR1A (bone morphogenetic protein receptor type 1A) | 0.989 | 1 | 0.209 | 0 | -0.0414 |
| SNRK (SNF related kinase) | 0.942 | 0.994 | 0.00425 | 0.0033 | 0.189 |
| CLK4 (CDC like kinase 4) | -0.122 | 0.847 | 0.0261 | -0.153 | -0.123 |
| RIOK1 (RIO kinase 1) | -0.499 | 0.795 | -0.102 | 0.076 | -0.267 |
| PAK6 (p21 (RAC1) activated kinase 6) | 0.15 | 0.884 | 0.253 | 0.0104 | -0.0668 |
| CHKA (choline kinase alpha) | -0.561 | 0.787 | 0.0433 | -0.213 | -0.135 |
| STK17B (serine/threonine kinase 17b) | 0.989 | 1 | 0.0977 | 0.0501 | 0.103 |
| FN3KRP (fructosamine 3 kinase related protein) | -0.973 | 0.73 | 0.0648 | -0.201 | 0.111 |
| ABL1 (ABL proto-oncogene 1, non-receptor tyrosine kinase) | 0.989 | 1 | 0 | 0.119 | -0.191 |
| NEK6 (NIMA related kinase 6) | 0.989 | 1 | 0 | 0 | -0.146 |
